The text below walks through data of doi:10.1101/2023.01.28.526013.

Chains of the proteins cited; added tags and fusions are not shown. Residues count along the entry.
UniProt P25311, residues 21-298: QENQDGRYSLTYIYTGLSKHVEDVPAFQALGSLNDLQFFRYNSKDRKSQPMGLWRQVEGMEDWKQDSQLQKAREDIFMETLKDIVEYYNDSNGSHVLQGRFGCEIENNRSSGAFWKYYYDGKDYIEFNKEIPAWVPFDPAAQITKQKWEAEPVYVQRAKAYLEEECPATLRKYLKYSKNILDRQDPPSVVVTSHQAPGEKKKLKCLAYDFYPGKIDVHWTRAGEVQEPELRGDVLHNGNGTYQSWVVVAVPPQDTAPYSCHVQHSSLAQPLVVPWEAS

No constants are given. Whether binding was seen depends on the method and setting. In cells and extracts the contact can be indirect. Some entries that bind do so weakly or less than the wild type. For part of these data: Tags and fused reporters may be left off the sequences shown.

Holding throughout (assay): co-IP
Experiment [1] deals with T1, MIIP in HCT116 cells transfected with AZGP1 plasmids only (human (endogenous in HCT116)) (UniProt Q5JXC2).
T1 sequence: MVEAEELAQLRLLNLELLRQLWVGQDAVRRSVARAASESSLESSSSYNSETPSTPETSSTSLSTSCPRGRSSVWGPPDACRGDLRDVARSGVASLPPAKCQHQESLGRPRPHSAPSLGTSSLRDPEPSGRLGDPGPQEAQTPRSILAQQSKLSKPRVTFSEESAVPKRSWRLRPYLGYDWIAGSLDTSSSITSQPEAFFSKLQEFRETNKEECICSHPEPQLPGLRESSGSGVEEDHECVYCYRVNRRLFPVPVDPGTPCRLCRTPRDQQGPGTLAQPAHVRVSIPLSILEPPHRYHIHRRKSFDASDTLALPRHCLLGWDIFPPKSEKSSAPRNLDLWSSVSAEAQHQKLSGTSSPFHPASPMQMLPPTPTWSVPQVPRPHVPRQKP

Experiment [2] addresses T2, MIIP in HepG2 and T47-D cells (UniProt Q5JXC2).
T2 sequence: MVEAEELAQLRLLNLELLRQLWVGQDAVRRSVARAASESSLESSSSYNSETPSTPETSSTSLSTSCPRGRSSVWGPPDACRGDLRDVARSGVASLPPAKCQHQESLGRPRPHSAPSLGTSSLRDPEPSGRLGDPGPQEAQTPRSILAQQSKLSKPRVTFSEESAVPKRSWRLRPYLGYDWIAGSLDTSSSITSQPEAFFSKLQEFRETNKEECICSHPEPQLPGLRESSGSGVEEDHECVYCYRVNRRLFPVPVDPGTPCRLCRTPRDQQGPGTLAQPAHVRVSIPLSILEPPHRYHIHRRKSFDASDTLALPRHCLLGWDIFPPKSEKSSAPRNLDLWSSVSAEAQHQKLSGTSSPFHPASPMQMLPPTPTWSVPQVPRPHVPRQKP

The target in experiment [3] is T3, Migration and invasion inhibitory protein, FLAG-tagged (pCMV-MIIP-FLAG) (UniProt Q5JXC2).
T3 sequence: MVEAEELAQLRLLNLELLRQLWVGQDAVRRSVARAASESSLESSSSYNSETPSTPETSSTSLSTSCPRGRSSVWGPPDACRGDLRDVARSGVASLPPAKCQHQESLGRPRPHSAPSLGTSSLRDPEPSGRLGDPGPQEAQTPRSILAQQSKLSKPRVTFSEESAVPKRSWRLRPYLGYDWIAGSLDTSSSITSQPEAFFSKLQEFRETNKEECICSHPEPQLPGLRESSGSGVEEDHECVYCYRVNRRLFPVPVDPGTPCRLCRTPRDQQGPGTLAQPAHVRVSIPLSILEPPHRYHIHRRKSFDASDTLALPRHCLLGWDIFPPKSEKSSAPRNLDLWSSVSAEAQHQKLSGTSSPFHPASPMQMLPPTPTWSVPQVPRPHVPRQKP

The target in experiment [4] is AZGP1-6×His wild type (pEX-3-AZGP1-6×His) (UniProt P25311).

Take “AZGP1-6×His wild type (pEX-3-AZGP1-6×His) (from UniProt P25311 21-298)”: the binding result in experiment [1] is on record as “binds”.

With “alpha-2-glycoprotein 1, zinc-binding (AZGP1), endogenous (from UniProt P25311 21-298)”, the binding entry in experiment [2] and in experiment [3] was “binds” each time.

B1: STT3A, catalytic subunit of the N-oligosaccharyl-transferase (OST) complex (enzyme, UniProt P46977 1-705)
chain: MTKFGFLRLSYEKQDTLLKLLILSMAAVLSFSTRLFAVLRFESVIHEFDPYFNYRTTRFLAEEGFYKFHNWFDDRAWYPLGRIIGGTIYPGLMITSAAIYHVLHFFHITIDIRNVCVFLAPLFSSFTTIVTYHLTKELKDAGAGLLAAAMIAVVPGYISRSVAGSYDNEGIAIFCMLLTYYMWIKAVKTGSICWAAKCALAYFYMVSSWGGYVFLINLIPLHVLVLMLTGRFSHRIYVAYCTVYCLGTILSMQISFVGFQPVLSSEHMAAFGVFGLCQIHAFVDYLRSKLNPQQFEVLFRSVISLVGFVLLTVGALLMLTGKISPWTGRFYSLLDPSYAKNNIPIIASVSEHQPTTWSSYYFDLQLLVFMFPVGLYYCFSNLSDARIFIIMYGVTSMYFSAVMVRLMLVLAPVMCILSGIGVSQVLSTYMKNLDISRPDKKSKKQQDSTYPIKNEVASGMILVMAFFLITYTFHSTWVTSEAYSSPSIVLSARGGDGSRIIFDDFREAYYWLRHNTPEDAKVMSWWDYGYQITAMANRTILVDNNTWNNTHISRVGQAMASTEEKAYEIMRELDVSYVLVIFGGLTGYSSDDINKFLWMVRIGGSTDTGKHIKENDYYTPTGEFRVDREGSPVLLNCLMYKMCYYRFGQVYTEAKRPPGFDRVRNAEIGNKDFELDVLEEAYTTEHWLVRIYKVKDLDNRGLSRT
Consider B1, for which, in experiment [4], the binding entry was “binds”.

B2: STT3B, catalytic subunit of the N-oligosaccharyl-transferase (OST) complex (enzyme, UniProt Q8TCJ2 1-826)
chain: MAEPSAPESKHKSSLNSSPWSGLMALGNSRHGHHGPGAQCAHKAAGGAAPPKPAPAGLSGGLSQPAGWQSLLSFTILFLAWLAGFSSRLFAVIRFESIIHEFDPWFNYRSTHHLASHGFYEFLNWFDERAWYPLGRIVGGTVYPGLMITAGLIHWILNTLNITVHIRDVCVFLAPTFSGLTSISTFLLTRELWNQGAGLLAACFIAIVPGYISRSVAGSFDNEGIAIFALQFTYYLWVKSVKTGSVFWTMCCCLSYFYMVSAWGGYVFIINLIPLHVFVLLLMQRYSKRVYIAYSTFYIVGLILSMQIPFVGFQPIRTSEHMAAAGVFALLQAYAFLQYLRDRLTKQEFQTLFFLGVSLAAGAVFLSVIYLTYTGYIAPWSGRFYSLWDTGYAKIHIPIIASVSEHQPTTWVSFFFDLHILVCTFPAGLWFCIKNINDERVFVALYAISAVYFAGVMVRLMLTLTPVVCMLSAIAFSNVFEHYLGDDMKRENPPVEDSSDEDDKRNQGNLYDKAGKVRKHATEQEKTEEGLGPNIKSIVTMLMLMLLMMFAVHCTWVTSNAYSSPSVVLASYNHDGTRNILDDFREAYFWLRQNTDEHARVMSWWDYGYQIAGMANRTTLVDNNTWNNSHIALVGKAMSSNETAAYKIMRTLDVDYVLVIFGGVIGYSGDDINKFLWMVRIAEGEHPKDIRESDYFTPQGEFRVDKAGSPTLLNCLMYKMSYYRFGEMQLDFRTPPGFDRTRNAEIGNKDIKFKHLEEAFTSEHWLVRIYKVKAPDNRETLDHKPRVTNIFPKQKYLSKKTTKRKRGYIKNKLVFKKGKKISKKTV
For B2, in experiment [4], the binding result was “no binding”.

B3: Migration and invasion inhibitory protein, FLAG-tagged (pCMV-MIIP-FLAG) (protein, UniProt Q5JXC2 1-388)
chain: MVEAEELAQLRLLNLELLRQLWVGQDAVRRSVARAASESSLESSSSYNSETPSTPETSSTSLSTSCPRGRSSVWGPPDACRGDLRDVARSGVASLPPAKCQHQESLGRPRPHSAPSLGTSSLRDPEPSGRLGDPGPQEAQTPRSILAQQSKLSKPRVTFSEESAVPKRSWRLRPYLGYDWIAGSLDTSSSITSQPEAFFSKLQEFRETNKEECICSHPEPQLPGLRESSGSGVEEDHECVYCYRVNRRLFPVPVDPGTPCRLCRTPRDQQGPGTLAQPAHVRVSIPLSILEPPHRYHIHRRKSFDASDTLALPRHCLLGWDIFPPKSEKSSAPRNLDLWSSVSAEAQHQKLSGTSSPFHPASPMQMLPPTPTWSVPQVPRPHVPRQKP
B3: the binding result in experiment [4] is on record as “binds”.
